Where a name gives a salt, the structure may show the parent alone. Some of the results follow. Hit calls seldom repeat between salt and free forms of one compound.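 Kinases were expressed as nanoluciferase fusions in K562 cells and luminescence was read every 4 h between 2 and 18 h as percent of control, DMSO set to 100% and a positive control to 0%. A time point counts as decreased when the signal drops significantly (2 sigma). The hit call is the authors' own, does not follow from the count of time points alone, and its rule is not shown.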
Legend:
Assay in all cases: kinase-Nluc reporter destabilization hit call (1 = scored as downregulated) (binary); higher = compound decreases kinase abundance
Settings in all cases: K562; 2-18 h
MAPK1 = MAPK1 (UniProt P28482)
MAPK4 = MAPK4 (UniProt P31152)
MAPKAPK2 = MAPKAPK2 (UniProt P49137)
MKNK1 = MKNK1 (UniProt Q9BUB5)
NTRK2 = NTRK2 (UniProt Q16620)
NTRK3 = NTRK3 (UniProt Q16288)
PAK4 = PAK4 (UniProt O96013)
PBK = PBK (UniProt Q96KB5)
PDGFRB = PDGFRB (UniProt P09619)
PDK1 = PDK1 (UniProt Q15118)
PDPK1 = PDPK1 (UniProt O15530)
PIK4CA = PIK4CA (UniProt P42356)
PIK4CB = PIK4CB (UniProt Q9UBF8)
PLK1 = PLK1 (UniProt P53350)
PRKAA1 = PRKAA1 (UniProt Q13131)
PRKCA = PRKCA (UniProt P17252)
PTK2 = PTK2 (UniProt Q05397)
PTK2B = PTK2B (UniProt Q14289)
RAF1 = RAF1 (UniProt P04049)
[1] = target: RAF1_S257L (clone: RAF1_mut) (UniProt P04049)

Protein sequences, listed by entry. Tags and fused reporters are not part of them. Lines headed by an entry give the natural chain unless they say otherwise; changes in a name come on top.
UniProt P28482, whole entry: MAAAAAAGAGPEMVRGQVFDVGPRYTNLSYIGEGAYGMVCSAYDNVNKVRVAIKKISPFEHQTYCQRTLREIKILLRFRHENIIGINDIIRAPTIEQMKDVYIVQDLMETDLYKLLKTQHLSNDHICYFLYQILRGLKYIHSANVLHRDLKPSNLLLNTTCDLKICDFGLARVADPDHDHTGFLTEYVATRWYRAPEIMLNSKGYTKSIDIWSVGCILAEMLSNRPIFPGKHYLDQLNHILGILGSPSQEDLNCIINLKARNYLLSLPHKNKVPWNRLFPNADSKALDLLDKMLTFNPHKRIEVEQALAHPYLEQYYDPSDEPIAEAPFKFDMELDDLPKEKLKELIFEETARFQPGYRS
UniProt P49137, whole entry, looked up: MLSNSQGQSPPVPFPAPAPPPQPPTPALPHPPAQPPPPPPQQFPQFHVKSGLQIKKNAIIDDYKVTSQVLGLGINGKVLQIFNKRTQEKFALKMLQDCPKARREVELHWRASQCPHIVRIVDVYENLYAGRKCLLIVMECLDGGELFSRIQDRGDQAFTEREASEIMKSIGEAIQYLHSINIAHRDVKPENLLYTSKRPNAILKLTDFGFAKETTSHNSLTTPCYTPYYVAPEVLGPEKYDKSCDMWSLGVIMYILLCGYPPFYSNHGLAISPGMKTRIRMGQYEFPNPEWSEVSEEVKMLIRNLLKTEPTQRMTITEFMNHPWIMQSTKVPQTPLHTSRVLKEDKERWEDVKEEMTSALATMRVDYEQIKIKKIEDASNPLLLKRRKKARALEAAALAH
UniProt Q16288, whole entry, looked up: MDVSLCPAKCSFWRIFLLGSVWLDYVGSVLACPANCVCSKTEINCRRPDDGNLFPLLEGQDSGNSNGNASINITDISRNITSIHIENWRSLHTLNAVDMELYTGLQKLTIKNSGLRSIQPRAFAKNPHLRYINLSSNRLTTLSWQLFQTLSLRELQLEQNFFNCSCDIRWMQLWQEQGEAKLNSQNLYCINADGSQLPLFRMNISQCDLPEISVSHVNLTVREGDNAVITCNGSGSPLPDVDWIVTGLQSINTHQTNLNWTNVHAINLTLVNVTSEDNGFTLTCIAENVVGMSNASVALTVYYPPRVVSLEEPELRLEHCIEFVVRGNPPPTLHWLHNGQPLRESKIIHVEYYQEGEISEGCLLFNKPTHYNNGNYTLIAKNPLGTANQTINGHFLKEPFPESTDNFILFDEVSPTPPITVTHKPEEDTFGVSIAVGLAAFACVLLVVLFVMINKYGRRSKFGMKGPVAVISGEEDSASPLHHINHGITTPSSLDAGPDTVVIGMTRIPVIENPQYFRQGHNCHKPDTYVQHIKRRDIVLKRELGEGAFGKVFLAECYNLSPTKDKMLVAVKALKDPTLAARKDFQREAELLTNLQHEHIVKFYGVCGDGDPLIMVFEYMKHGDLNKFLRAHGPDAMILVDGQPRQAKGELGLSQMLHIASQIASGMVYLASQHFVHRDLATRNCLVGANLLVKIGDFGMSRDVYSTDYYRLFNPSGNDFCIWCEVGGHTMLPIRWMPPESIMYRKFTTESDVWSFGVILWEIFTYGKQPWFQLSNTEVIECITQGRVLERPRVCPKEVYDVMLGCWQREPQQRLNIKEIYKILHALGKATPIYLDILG
UniProt Q96KB5: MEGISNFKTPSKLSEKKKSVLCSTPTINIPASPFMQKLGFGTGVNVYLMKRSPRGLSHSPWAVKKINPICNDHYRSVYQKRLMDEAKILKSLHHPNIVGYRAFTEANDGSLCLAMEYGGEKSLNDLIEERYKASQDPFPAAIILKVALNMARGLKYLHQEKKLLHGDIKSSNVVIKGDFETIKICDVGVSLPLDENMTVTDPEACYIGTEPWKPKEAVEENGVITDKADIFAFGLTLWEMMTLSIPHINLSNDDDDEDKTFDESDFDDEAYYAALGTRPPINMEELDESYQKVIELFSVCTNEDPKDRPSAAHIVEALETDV
UniProt P42356, whole entry, looked up: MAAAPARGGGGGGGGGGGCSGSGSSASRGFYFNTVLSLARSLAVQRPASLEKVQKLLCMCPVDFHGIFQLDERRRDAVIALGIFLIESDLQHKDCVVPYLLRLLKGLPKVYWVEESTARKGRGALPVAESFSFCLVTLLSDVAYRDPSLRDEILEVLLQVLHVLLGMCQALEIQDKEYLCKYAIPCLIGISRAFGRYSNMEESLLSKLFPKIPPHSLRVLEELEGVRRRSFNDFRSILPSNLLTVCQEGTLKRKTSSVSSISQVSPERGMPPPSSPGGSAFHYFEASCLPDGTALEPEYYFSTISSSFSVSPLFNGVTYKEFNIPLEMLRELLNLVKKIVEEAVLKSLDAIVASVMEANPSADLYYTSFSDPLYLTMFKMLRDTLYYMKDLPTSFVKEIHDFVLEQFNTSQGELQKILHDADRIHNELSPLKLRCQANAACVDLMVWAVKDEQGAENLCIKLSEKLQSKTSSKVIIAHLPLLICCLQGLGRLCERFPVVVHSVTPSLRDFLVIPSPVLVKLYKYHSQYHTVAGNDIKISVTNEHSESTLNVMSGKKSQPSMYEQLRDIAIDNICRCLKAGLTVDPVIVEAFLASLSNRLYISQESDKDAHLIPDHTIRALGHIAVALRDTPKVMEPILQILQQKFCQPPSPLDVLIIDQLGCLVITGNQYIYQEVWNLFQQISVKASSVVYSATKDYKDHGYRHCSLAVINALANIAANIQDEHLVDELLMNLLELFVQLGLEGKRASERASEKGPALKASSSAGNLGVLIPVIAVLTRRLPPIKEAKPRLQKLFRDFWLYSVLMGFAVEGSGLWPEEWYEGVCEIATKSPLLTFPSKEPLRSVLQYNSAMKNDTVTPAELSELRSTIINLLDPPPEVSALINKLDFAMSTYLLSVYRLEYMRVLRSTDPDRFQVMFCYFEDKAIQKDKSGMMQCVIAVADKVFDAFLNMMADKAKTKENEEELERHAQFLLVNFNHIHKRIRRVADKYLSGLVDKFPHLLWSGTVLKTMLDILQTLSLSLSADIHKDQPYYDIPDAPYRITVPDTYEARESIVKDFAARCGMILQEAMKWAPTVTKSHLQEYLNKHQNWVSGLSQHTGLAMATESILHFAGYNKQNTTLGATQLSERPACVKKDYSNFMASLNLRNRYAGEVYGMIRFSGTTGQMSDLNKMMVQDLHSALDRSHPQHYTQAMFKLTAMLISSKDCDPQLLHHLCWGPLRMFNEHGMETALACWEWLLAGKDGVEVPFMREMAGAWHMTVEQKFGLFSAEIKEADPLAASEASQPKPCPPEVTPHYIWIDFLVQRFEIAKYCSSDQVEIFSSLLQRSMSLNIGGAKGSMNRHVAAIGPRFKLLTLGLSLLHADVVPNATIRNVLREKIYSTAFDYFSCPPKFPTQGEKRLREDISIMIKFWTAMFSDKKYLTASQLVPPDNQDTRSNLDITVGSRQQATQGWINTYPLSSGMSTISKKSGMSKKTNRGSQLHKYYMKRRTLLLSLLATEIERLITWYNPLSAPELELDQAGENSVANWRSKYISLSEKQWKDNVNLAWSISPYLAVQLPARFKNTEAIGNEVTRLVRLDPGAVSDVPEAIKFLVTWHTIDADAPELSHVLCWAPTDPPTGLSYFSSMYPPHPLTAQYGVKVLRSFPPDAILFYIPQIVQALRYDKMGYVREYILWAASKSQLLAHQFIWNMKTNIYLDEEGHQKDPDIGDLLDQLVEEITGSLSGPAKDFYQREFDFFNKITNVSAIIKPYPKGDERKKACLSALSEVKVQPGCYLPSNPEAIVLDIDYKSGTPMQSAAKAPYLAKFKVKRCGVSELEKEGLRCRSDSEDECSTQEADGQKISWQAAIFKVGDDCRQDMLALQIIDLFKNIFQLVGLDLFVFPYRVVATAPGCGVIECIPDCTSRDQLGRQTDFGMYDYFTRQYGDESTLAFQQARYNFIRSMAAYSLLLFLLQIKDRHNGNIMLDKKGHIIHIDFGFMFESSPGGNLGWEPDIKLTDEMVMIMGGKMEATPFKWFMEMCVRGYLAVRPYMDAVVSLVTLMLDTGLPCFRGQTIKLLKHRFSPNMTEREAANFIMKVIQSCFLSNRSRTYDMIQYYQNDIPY
UniProt Q9UBF8: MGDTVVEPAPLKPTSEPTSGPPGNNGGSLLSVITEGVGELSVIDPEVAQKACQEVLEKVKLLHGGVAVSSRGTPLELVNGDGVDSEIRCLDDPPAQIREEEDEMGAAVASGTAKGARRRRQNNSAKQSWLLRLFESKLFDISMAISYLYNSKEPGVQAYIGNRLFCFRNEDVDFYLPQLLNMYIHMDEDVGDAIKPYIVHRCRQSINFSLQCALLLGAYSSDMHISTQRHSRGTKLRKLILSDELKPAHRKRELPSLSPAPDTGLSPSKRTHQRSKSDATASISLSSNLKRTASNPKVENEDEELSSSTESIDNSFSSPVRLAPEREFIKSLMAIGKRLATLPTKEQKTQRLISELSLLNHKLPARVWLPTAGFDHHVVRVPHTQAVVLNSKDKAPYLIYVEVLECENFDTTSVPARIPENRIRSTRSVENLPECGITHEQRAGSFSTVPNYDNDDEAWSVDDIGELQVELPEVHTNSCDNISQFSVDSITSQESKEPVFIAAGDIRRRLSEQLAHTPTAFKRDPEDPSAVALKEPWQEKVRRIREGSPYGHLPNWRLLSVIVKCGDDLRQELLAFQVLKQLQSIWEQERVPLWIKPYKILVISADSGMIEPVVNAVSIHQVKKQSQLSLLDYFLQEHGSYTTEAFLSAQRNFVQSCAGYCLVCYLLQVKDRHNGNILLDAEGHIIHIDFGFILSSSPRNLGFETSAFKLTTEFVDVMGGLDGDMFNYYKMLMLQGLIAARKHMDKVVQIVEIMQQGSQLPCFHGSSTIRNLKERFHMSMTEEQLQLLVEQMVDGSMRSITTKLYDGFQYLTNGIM
UniProt P53350, whole entry: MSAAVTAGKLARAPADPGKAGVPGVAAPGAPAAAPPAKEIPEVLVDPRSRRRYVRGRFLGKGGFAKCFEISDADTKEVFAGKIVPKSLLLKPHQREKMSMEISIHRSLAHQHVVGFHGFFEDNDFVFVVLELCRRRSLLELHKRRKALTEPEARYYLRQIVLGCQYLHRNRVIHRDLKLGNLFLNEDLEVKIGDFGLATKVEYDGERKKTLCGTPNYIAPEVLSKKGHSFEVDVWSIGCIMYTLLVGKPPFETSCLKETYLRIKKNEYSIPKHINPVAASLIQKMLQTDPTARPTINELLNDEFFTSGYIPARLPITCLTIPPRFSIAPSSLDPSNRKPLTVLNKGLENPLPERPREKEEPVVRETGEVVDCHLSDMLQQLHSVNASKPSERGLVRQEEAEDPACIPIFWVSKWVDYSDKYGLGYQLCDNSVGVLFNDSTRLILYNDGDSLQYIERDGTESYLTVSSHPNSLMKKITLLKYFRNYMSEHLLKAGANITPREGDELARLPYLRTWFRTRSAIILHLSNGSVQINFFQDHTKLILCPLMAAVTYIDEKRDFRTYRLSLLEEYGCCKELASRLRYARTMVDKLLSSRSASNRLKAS
UniProt Q14289, whole entry, looked up: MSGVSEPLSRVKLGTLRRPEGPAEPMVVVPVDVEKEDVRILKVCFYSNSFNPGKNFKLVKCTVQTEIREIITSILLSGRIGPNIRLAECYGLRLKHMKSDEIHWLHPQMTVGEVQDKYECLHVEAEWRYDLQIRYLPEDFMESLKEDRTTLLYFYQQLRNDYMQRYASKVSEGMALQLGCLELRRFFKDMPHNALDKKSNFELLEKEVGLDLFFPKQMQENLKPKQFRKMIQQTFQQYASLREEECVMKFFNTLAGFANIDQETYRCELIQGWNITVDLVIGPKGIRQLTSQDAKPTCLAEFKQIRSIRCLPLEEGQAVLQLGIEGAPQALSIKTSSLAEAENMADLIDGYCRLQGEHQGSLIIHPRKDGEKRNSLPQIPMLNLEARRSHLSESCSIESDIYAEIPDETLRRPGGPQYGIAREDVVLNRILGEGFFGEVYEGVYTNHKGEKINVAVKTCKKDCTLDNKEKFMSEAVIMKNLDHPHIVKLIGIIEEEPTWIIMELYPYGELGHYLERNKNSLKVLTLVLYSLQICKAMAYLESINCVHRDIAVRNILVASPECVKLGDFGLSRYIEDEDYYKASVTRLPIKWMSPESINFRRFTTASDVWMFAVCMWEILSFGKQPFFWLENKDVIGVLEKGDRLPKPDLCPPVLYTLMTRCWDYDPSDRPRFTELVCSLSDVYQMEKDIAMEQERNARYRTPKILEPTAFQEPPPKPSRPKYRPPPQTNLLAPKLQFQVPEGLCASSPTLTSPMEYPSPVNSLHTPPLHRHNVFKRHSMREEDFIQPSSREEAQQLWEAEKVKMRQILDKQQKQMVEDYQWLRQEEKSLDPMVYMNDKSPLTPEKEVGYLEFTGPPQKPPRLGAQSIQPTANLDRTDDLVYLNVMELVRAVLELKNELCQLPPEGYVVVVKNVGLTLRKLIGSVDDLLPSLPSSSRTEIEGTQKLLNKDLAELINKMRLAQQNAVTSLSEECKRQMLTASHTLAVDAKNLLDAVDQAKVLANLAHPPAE

Measured: kinase-Nluc reporter destabilization hit call

CC(C)(C)n1nc(Cc2ccccc2O)c2c(N)ncnc21 (10 µM)
inactive: MAPK1 = 0 | MAPK4 = 0 | MAPKAPK2 = 0 | MKNK1 = 0 | NTRK2 = 0 | NTRK3 = 0 | PAK4 = 0 | PBK 0 | PDGFRB 0 | PDK1 = 0 | PDPK1 = 0 | PIK4CA 0 | PIK4CB 0 | PLK1 = 0 | PRKAA1 = 0 | PRKCA 0 | PTK2 = 0 | PTK2B 0 | RAF1 = 0 | [1] 0

CNc1cc(Nc2cccn(-c3ccccn3)c2=O)nn2c(C(=O)N[C@@H]3C[C@@H]3F)cnc12 (2.5 µM)
active: PTK2B 1
inactive: MAPK1 = 0 | MAPK4 = 0 | MAPKAPK2 = 0 | MKNK1 = 0 | NTRK2 = 0 | NTRK3 = 0 | PAK4 = 0 | PBK 0 | PDGFRB 0 | PDK1 = 0 | PDPK1 = 0 | PIK4CA 0 | PIK4CB 0 | PLK1 = 0 | PRKAA1 = 0 | PRKCA 0 | PTK2 = 0 | RAF1 = 0 | [1] 0

CC(C)=CCc1c(-c2ccc(O)cc2O)oc2c3c(cc(O)c2c1=O)OC(C)(C)C=C3 [Morusin] (2.5 µM)
inactive: MAPK1 = 0 | MAPK4 = 0 | MAPKAPK2 = 0 | MKNK1 = 0 | NTRK2 = 0 | NTRK3 = 0 | PAK4 = 0 | PBK 0 | PDGFRB 0 | PDK1 = 0 | PDPK1 = 0 | PIK4CA 0 | PIK4CB 0 | PLK1 = 0 | PRKAA1 = 0 | PRKCA 0 | PTK2 = 0 | PTK2B 0 | RAF1 = 0 | [1] 0

CCc1cncnc1N1CCN(Cc2nc3ccc(C(F)(F)F)cc3[nH]2)CC1 (10 µM)
inactive: MAPK1 = 0 | MAPK4 = 0 | MAPKAPK2 = 0 | MKNK1 = 0 | NTRK2 = 0 | NTRK3 = 0 | PAK4 = 0 | PBK 0 | PDGFRB 0 | PDK1 = 0 | PDPK1 = 0 | PIK4CA 0 | PIK4CB 0 | PLK1 = 0 | PRKAA1 = 0 | PRKCA 0 | PTK2 = 0 | PTK2B 0 | RAF1 = 0 | [1] 0

CCOC(=O)N1C/C(=C/c2ccccc2F)C(=O)/C(=C\c2ccccc2F)C1 (2.5 µM)
inactive: MAPK1 = 0 | MAPK4 = 0 | MAPKAPK2 = 0 | MKNK1 = 0 | NTRK2 = 0 | NTRK3 = 0 | PAK4 = 0 | PBK 0 | PDGFRB 0 | PDK1 = 0 | PDPK1 = 0 | PIK4CA 0 | PIK4CB 0 | PLK1 = 0 | PRKAA1 = 0 | PRKCA 0 | PTK2 = 0 | PTK2B 0 | RAF1 = 0 | [1] 0

Cc1nn(C)c2c1C(c1ccc(C(F)(F)F)cc1)C(C#N)=C(N)O2 (stereo not given) (10 µM)
inactive: MAPK1 = 0 | MAPK4 = 0 | MAPKAPK2 = 0 | MKNK1 = 0 | NTRK2 = 0 | NTRK3 = 0 | PAK4 = 0 | PBK 0 | PDGFRB 0 | PDK1 = 0 | PDPK1 = 0 | PIK4CA 0 | PIK4CB 0 | PLK1 = 0 | PRKAA1 = 0 | PRKCA 0 | PTK2 = 0 | PTK2B 0 | RAF1 = 0 | [1] 0

CCc1ccc(OCC(=O)Nc2ccc(F)c([N+](=O)[O-])c2)cc1 (10 µM)
inactive: MAPK1 = 0 | MAPK4 = 0 | MAPKAPK2 = 0 | MKNK1 = 0 | NTRK2 = 0 | NTRK3 = 0 | PAK4 = 0 | PBK 0 | PDGFRB 0 | PDK1 = 0 | PDPK1 = 0 | PIK4CA 0 | PIK4CB 0 | PLK1 = 0 | PRKAA1 = 0 | PRKCA 0 | PTK2 = 0 | PTK2B 0 | RAF1 = 0 | [1] 0

Cn1cc(-c2cnc3cnn(S(=O)(=O)c4cnc5ccc(-c6cnn(C)c6)cn45)c3c2)cn1 [Glumetinib] (10 µM)
inactive: MAPK1 = 0 | MAPK4 = 0 | MAPKAPK2 = 0 | MKNK1 = 0 | NTRK2 = 0 | NTRK3 = 0 | PAK4 = 0 | PBK 0 | PDGFRB 0 | PDK1 = 0 | PDPK1 = 0 | PIK4CA 0 | PIK4CB 0 | PLK1 = 0 | PRKAA1 = 0 | PRKCA 0 | PTK2 = 0 | PTK2B 0 | RAF1 = 0 | [1] 0

CCCNC(=O)Nc1ccc(Oc2ncnc3cc(OC)c(OC)cc23)cc1Cl (2.5 µM)
inactive: MAPK1 = 0 | MAPK4 = 0 | MAPKAPK2 = 0 | MKNK1 = 0 | NTRK2 = 0 | NTRK3 = 0 | PAK4 = 0 | PBK 0 | PDGFRB 0 | PDK1 = 0 | PDPK1 = 0 | PIK4CA 0 | PIK4CB 0 | PLK1 = 0 | PRKAA1 = 0 | PRKCA 0 | PTK2 = 0 | PTK2B 0 | RAF1 = 0 | [1] 0

CS(=O)(=O)c1ccc(-c2cnc(N)c(-c3ccc(C(F)(F)F)nc3)c2)cc1 (10 µM)
inactive: MAPK1 = 0 | MAPK4 = 0 | MAPKAPK2 = 0 | MKNK1 = 0 | NTRK2 = 0 | NTRK3 = 0 | PAK4 = 0 | PBK 0 | PDGFRB 0 | PDK1 = 0 | PDPK1 = 0 | PIK4CA 0 | PIK4CB 0 | PLK1 = 0 | PRKAA1 = 0 | PRKCA 0 | PTK2 = 0 | PTK2B 0 | RAF1 = 0 | [1] 0

CC(C)N1CCN(c2ccc(Nc3ncc4cc5n(c4n3)C3(CCCCC3)CNC5=O)nc2)CC1 [Lerociclib (dihydrochloride)] (2 µM)
inactive: MAPK1 = 0 | MAPK4 = 0 | MAPKAPK2 = 0 | MKNK1 = 0 | NTRK2 = 0 | NTRK3 = 0 | PAK4 = 0 | PBK 0 | PDGFRB 0 | PDK1 = 0 | PDPK1 = 0 | PIK4CA 0 | PIK4CB 0 | PLK1 = 0 | PRKAA1 = 0 | PRKCA 0 | PTK2 = 0 | PTK2B 0 | RAF1 = 0 | [1] 0

COc1nn(C)cc1Nc1nccc(-c2c[nH]c3c(NC(=O)[C@@H](C)N4CCN(C)CC4)cccc23)n1 (10 µM)
inactive: MAPK1 = 0 | MAPK4 = 0 | MAPKAPK2 = 0 | MKNK1 = 0 | NTRK2 = 0 | NTRK3 = 0 | PAK4 = 0 | PBK 0 | PDGFRB 0 | PDK1 = 0 | PDPK1 = 0 | PIK4CA 0 | PIK4CB 0 | PLK1 = 0 | PRKAA1 = 0 | PRKCA 0 | PTK2 = 0 | PTK2B 0 | RAF1 = 0 | [1] 0

CNC(=O)c1ccccc1Nc1nc(Nc2ccc3c(c2OC)CCC[C@H](N2CCN(CCO)CC2)C3)ncc1Cl (10 µM)
inactive: MAPK1 = 0 | MAPK4 = 0 | MAPKAPK2 = 0 | MKNK1 = 0 | NTRK2 = 0 | NTRK3 = 0 | PAK4 = 0 | PBK 0 | PDGFRB 0 | PDK1 = 0 | PDPK1 = 0 | PIK4CA 0 | PIK4CB 0 | PLK1 = 0 | PRKAA1 = 0 | PRKCA 0 | PTK2 = 0 | PTK2B 0 | RAF1 = 0 | [1] 0

CCN(CC)CCC(=O)N1N=C(c2c(-c3ccccc3)c3cc(Br)ccc3[nH]c2=O)CC1c1ccc(Br)cc1 (stereo not given) (2.5 µM)
inactive: MAPK1 = 0 | MAPK4 = 0 | MAPKAPK2 = 0 | MKNK1 = 0 | NTRK2 = 0 | NTRK3 = 0 | PAK4 = 0 | PBK 0 | PDGFRB 0 | PDK1 = 0 | PDPK1 = 0 | PIK4CA 0 | PIK4CB 0 | PLK1 = 0 | PRKAA1 = 0 | PRKCA 0 | PTK2 = 0 | PTK2B 0 | RAF1 = 0 | [1] 0

COc1c(Nc2cc(C)[nH]n2)nc(Sc2ccc(S(=O)(=O)Cc3cccc([N+](=O)[O-])c3F)cc2F)nc1N1CCCCC1 [Centrinone-B] (2.5 µM)
inactive: MAPK1 = 0 | MAPK4 = 0 | MAPKAPK2 = 0 | MKNK1 = 0 | NTRK2 = 0 | NTRK3 = 0 | PAK4 = 0 | PBK 0 | PDGFRB 0 | PDK1 = 0 | PDPK1 = 0 | PIK4CA 0 | PIK4CB 0 | PLK1 = 0 | PRKAA1 = 0 | PRKCA 0 | PTK2 = 0 | PTK2B 0 | RAF1 = 0 | [1] 0

NC(=O)N1CCC(CC(=O)N2CCC([C@H]3c4ncc(Br)cc4CCc4cc(Cl)cc(Br)c43)CC2)CC1 [Lonafarnib] (2.5 µM)
inactive: MAPK1 = 0 | MAPK4 = 0 | MAPKAPK2 = 0 | MKNK1 = 0 | NTRK2 = 0 | NTRK3 = 0 | PAK4 = 0 | PBK 0 | PDGFRB 0 | PDK1 = 0 | PDPK1 = 0 | PIK4CA 0 | PIK4CB 0 | PLK1 = 0 | PRKAA1 = 0 | PRKCA 0 | PTK2 = 0 | PTK2B 0 | RAF1 = 0 | [1] 0

Cn1cc(C2=C(c3cn(CCCSC(=N)N)c4ccccc34)C(=O)NC2=O)c2ccccc21 [Ro 31-8220 (mesylate)] (2.5 µM)
inactive: MAPK1 = 0 | MAPK4 = 0 | MAPKAPK2 = 0 | MKNK1 = 0 | NTRK2 = 0 | NTRK3 = 0 | PAK4 = 0 | PBK 0 | PDGFRB 0 | PDK1 = 0 | PDPK1 = 0 | PIK4CA 0 | PIK4CB 0 | PLK1 = 0 | PRKAA1 = 0 | PRKCA 0 | PTK2 = 0 | PTK2B 0 | RAF1 = 0 | [1] 0

O=Nc1c2[nH]c3ccccc3nc-2c2ccccc12 [IQ-1S (free acid)] (2.5 µM)
inactive: MAPK1 = 0 | MAPK4 = 0 | MAPKAPK2 = 0 | MKNK1 = 0 | NTRK2 = 0 | NTRK3 = 0 | PAK4 = 0 | PBK 0 | PDGFRB 0 | PDK1 = 0 | PDPK1 = 0 | PIK4CA 0 | PIK4CB 0 | PLK1 = 0 | PRKAA1 = 0 | PRKCA 0 | PTK2 = 0 | PTK2B 0 | RAF1 = 0 | [1] 0

Copied from above (five entries):
COc1nn(C)cc1Nc1nccc(-c2c[nH]c3c(NC(=O)[C@@H](C)N4CCN(C)CC4)cccc23)n1 (10 µM)
inactive: MAPK1 = 0 | MAPK4 = 0 | MAPKAPK2 = 0 | MKNK1 = 0 | NTRK2 = 0 | NTRK3 = 0 | PAK4 = 0 | PBK 0 | PDGFRB 0 | PDK1 = 0 | PDPK1 = 0 | PIK4CA 0 | PIK4CB 0 | PLK1 = 0 | PRKAA1 = 0 | PRKCA 0 | PTK2 = 0 | PTK2B 0 | RAF1 = 0 | [1] 0

CNC(=O)c1ccccc1Nc1nc(Nc2ccc3c(c2OC)CCC[C@H](N2CCN(CCO)CC2)C3)ncc1Cl (10 µM)
inactive: MAPK1 = 0 | MAPK4 = 0 | MAPKAPK2 = 0 | MKNK1 = 0 | NTRK2 = 0 | NTRK3 = 0 | PAK4 = 0 | PBK 0 | PDGFRB 0 | PDK1 = 0 | PDPK1 = 0 | PIK4CA 0 | PIK4CB 0 | PLK1 = 0 | PRKAA1 = 0 | PRKCA 0 | PTK2 = 0 | PTK2B 0 | RAF1 = 0 | [1] 0

CCN(CC)CCC(=O)N1N=C(c2c(-c3ccccc3)c3cc(Br)ccc3[nH]c2=O)CC1c1ccc(Br)cc1 (stereo not given) (2.5 µM)
inactive: MAPK1 = 0 | MAPK4 = 0 | MAPKAPK2 = 0 | MKNK1 = 0 | NTRK2 = 0 | NTRK3 = 0 | PAK4 = 0 | PBK 0 | PDGFRB 0 | PDK1 = 0 | PDPK1 = 0 | PIK4CA 0 | PIK4CB 0 | PLK1 = 0 | PRKAA1 = 0 | PRKCA 0 | PTK2 = 0 | PTK2B 0 | RAF1 = 0 | [1] 0

COc1c(Nc2cc(C)[nH]n2)nc(Sc2ccc(S(=O)(=O)Cc3cccc([N+](=O)[O-])c3F)cc2F)nc1N1CCCCC1 [Centrinone-B] (2.5 µM)
inactive: MAPK1 = 0 | MAPK4 = 0 | MAPKAPK2 = 0 | MKNK1 = 0 | NTRK2 = 0 | NTRK3 = 0 | PAK4 = 0 | PBK 0 | PDGFRB 0 | PDK1 = 0 | PDPK1 = 0 | PIK4CA 0 | PIK4CB 0 | PLK1 = 0 | PRKAA1 = 0 | PRKCA 0 | PTK2 = 0 | PTK2B 0 | RAF1 = 0 | [1] 0

NC(=O)N1CCC(CC(=O)N2CCC([C@H]3c4ncc(Br)cc4CCc4cc(Cl)cc(Br)c43)CC2)CC1 [Lonafarnib] (2.5 µM)
inactive: MAPK1 = 0 | MAPK4 = 0 | MAPKAPK2 = 0 | MKNK1 = 0 | NTRK2 = 0 | NTRK3 = 0 | PAK4 = 0 | PBK 0 | PDGFRB 0 | PDK1 = 0 | PDPK1 = 0 | PIK4CA 0 | PIK4CB 0 | PLK1 = 0 | PRKAA1 = 0 | PRKCA 0 | PTK2 = 0 | PTK2B 0 | RAF1 = 0 | [1] 0

From the supplement of paper PMC12823440, “Inhibitors supercharge kinase turnover through native proteolytic circuits” (Nature, 2025)
